# According to PMC5421886:
# Protein sequences, listed by entry. Tags and fused reporters are not part of them.
# UniProt P29350: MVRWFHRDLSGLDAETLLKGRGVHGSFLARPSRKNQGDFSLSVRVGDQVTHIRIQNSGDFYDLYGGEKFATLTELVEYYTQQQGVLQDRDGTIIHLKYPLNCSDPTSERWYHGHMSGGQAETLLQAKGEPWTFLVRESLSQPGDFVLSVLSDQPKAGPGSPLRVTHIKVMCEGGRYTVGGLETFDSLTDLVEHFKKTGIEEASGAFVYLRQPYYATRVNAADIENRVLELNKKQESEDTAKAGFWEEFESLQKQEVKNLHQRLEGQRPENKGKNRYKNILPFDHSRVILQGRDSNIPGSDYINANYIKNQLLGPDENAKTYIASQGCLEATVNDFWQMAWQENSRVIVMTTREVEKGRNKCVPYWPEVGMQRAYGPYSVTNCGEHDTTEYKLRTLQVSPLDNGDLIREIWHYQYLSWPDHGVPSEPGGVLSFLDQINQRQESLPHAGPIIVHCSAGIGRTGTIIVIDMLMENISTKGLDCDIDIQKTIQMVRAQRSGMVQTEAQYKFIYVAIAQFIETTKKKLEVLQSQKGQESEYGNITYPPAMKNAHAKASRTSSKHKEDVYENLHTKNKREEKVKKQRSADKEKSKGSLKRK
# UniProt O75832: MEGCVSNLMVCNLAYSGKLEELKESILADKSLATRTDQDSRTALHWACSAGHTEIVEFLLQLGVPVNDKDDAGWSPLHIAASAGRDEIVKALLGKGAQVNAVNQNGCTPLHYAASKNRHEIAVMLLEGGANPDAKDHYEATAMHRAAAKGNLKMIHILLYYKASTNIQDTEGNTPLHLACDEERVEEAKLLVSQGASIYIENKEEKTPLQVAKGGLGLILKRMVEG
# UniProt P29351: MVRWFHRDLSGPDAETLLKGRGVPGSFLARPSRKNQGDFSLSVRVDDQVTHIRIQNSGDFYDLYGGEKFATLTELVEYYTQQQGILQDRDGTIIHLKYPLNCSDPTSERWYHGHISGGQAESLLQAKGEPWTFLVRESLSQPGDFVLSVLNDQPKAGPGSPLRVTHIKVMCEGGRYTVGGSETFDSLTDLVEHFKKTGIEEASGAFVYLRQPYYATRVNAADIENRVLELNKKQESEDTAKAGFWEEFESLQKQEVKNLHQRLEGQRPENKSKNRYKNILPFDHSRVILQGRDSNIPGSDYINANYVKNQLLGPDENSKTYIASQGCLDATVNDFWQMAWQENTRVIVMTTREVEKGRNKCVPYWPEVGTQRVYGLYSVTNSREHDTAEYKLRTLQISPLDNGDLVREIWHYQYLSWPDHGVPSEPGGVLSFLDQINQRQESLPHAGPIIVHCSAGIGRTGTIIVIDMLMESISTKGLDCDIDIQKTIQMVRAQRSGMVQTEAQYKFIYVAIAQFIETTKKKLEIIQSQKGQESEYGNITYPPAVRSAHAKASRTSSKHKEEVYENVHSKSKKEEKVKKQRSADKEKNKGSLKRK
# No constants are given. Whether binding was seen depends on the method and setting. In cells and extracts the contact can be indirect. Some results given as binding are weak or reduced against the parent protein; the word gives no strength.
# Legend:
# FLAG-tagged SHP-1 = FLAG-tagged SHP-1 (UniProt P29350); assay: co-IP; U-2 OS cells co-transfected with HA-gankyrin and FLAG-SHP-1; lysates immunoprecipitated with anti-FLAG or anti-HA, western blot
# [1] = target: HA-tagged human gankyrin (human) (UniProt O75832); assay: as above
# [2] = target: SHP-1 (endogenous, mouse colon) (mouse (endogenous in colon tissue)) (UniProt P29351); assay: proximity ligation; Duolink fluorescence assay on colonic tissue of AOM/DSS-treated Gankyrin f/f mice with gankyrin and SHP-1 antibodies; confocal microscopy; red dots mainly in non-epithelial cells
molecule,measurement,setting,value
HA-tagged human gankyrin (from UniProt O75832 1-226),binding,FLAG-tagged SHP-1,binds
FLAG-tagged SHP-1 (from UniProt P29350 1-595),binding,[1],binds
"gankyrin (endogenous, mouse colon) (protein, UniProt Q9Z2X2 1-231) MEGCVSNIMICNLAYSGKLDELKERILADKSLATRTDQDSRTALHWACSAGHTEIVEFLLQLGVPVNDKDDAGWSPLHIAASAGRDEIVKALLVKGAHVNAVNQNGCTPLHYAASKNRHEIAVMLLEGGANPDAKDHYDATAMHRAAAKGNLKMVHILLFYKASTNIQDTEGNTPLHLACDEERVEEAKFLVTQGASIYIENKEEKTPLQVAKGGLGLILKRLAESEEASM",binding,[2],binds
